The values below come from PMC6846080.

The exact form of at least one protein or probe is not confirmed. For some of these results: At least one verdict was read from the data and is not stated in words by the source.

For orientation: Kd means the constant that tells how readily two partners part at equilibrium.

The target of data set [1] is Klenow Fragment D424A C907S/K550C Cy3B (UniProt P00582). The experiment in a line: single-molecule FRET (protein-DNA). The conditions noted are these: 100 pM labelled Pol, binary complex detected; dT-C6-amino linker at labelled dT; single-molecule confocal FRET in solution; about 100 pM labelled species, Pol titrated (1 nM for binary complex); recombinant protein; protein details: N-terminal His6, Cy3B on K550C; label: acceptor (Atto647N) at varied positions.

The target in data set [2] is Klenow Fragment D424A C907S/L744C Cy3B (UniProt P00582). The experiment in a line: single-molecule FRET (protein-DNA). The conditions noted are these: 100 pM labelled Pol, binary complex detected; dT-C6-amino linker at labelled dT; single-molecule confocal FRET in solution; about 100 pM labelled species, Pol titrated (1 nM for binary complex); recombinant protein; protein details: N-terminal His6, Cy3B on L744C; label: acceptor (Atto647N) at varied positions.

In data set [3] the target is Klenow Fragment D424A, C907+ Cy3B (UniProt P00582). Kind of data set: single-molecule FRET (protein-DNA). The following applies: 100 pM labelled Pol, binary complex detected; dT-C6-amino linker at labelled dT; single-molecule confocal FRET in solution; about 100 pM labelled species, Pol titrated (1 nM for binary complex); recombinant protein; protein details: N-terminal His6, Cy3B on C907; label: acceptor (Atto647N) at varied positions.

The target in data set [4] is DNA polymerase I Klenow Fragment (Pol) D424A (UniProt P00582). The experiment in a line: single-molecule FRET titration. The following applies: KD1, Pol-DNA binary complex; dT-C6-amino linkers at labelled dT; single-molecule confocal FRET in solution; about 100 pM labelled species, Pol titrated (1 nM for binary complex); recombinant protein; protein details: N-terminal His6.

The target is the same in data set [5]. The experiment in a line: quenchable single-molecule FRET. The conditions noted are these: 3 nM Pol, reduced quenching on binding; dT-C6-amino linkers at labelled dT; single-molecule confocal FRET in solution; about 100 pM labelled species, Pol titrated (1 nM for binary complex); recombinant protein; protein details: N-terminal His6.
The target is the same in data set [6]. The experiment in a line: single-molecule FRET. The following applies: dT-C6-amino linkers at labelled dT, single-molecule confocal FRET in solution, about 100 pM labelled species, Pol titrated (1 nM for binary complex), recombinant protein, protein details: N-terminal His6.

Take “CCACGAAGCAGGCTCTACTCTCTAGGGATGTATGGTAATGGGACGAAGAATGAGG / CCTCATTCTTCGTCCCATTACCATACATCC / TAGAGAGTAGAGCCTGCTTCGTGG [1-nt gapped DNA substrate, acceptor only]”: the binding result in data set [1], in data set [2] and in data set [3] was “binds” throughout.

Consider “CCACGAAGCAGGCTCTACTCTCTAGGGATGTATGGTAATGGGACGAAGAATGAGG / CCTCATTCTTCGTCCCATTACCATACATCC / TAGAGAGTAGAGCCTGCTTCGTGG [1-nt gapped DNA substrate]”, for which the Kd in data set [4] is 0.36 nM.

For the sequence “CCACGAAGCAGGCTCTACTCTCTAGGGATGTATGGTAATGGGACGAAGAATGAGG / CCTCATTCTTCGTCCCATTACCATACATCC / TAGAGAGTAGAGCCTGCTTCGTGG [gapped DNA T(+1)B(+4)]”, the binding result in data set [5] is recorded as “binds”.

On to “CCACGAAGCAGGCTCTACTCTCTAGGGATGTATGGTAATGGGACGAAGAATGAGG / CCTCATTCTTCGTCCCATTACCATACATCC / TAGAGAGTAGAGCCTGCTTCGTGG [gapped DNA T(-12)T(+8)]”, for which the binding result in data set [6] (large FRET change on Pol binding in vitro, label: Cy3B and/or Atto647N at T(-12) and T(+8)) is given as “binds”.

Turning to “CCACGAAGCAGGCTCTACTCTCTAGGGATGTATGGTAATGGGACGAAGAATGAGG / CCTCATTCTTCGTCCCATTACCATACATCC / TAGAGAGTAGAGCCTGCTTCGTGG [gapped DNA T(-18)T(+15)]”, the binding result in data set [6] (binary and high-FRET (Pol)2-DNA complexes in vitro, label: Cy3B and/or Atto647N at T(-18) and T(+15)) was “binds”.
